Results reported in paper PMC3910079.
No constants are given. Whether binding was seen depends on the method and setting. In cells and extracts the contact can be indirect. Some binding calls cover weakened binding; strength is not graded here.

The chains behind the UniProt entries cited, without tags or fusion partners.
UniProt P38903: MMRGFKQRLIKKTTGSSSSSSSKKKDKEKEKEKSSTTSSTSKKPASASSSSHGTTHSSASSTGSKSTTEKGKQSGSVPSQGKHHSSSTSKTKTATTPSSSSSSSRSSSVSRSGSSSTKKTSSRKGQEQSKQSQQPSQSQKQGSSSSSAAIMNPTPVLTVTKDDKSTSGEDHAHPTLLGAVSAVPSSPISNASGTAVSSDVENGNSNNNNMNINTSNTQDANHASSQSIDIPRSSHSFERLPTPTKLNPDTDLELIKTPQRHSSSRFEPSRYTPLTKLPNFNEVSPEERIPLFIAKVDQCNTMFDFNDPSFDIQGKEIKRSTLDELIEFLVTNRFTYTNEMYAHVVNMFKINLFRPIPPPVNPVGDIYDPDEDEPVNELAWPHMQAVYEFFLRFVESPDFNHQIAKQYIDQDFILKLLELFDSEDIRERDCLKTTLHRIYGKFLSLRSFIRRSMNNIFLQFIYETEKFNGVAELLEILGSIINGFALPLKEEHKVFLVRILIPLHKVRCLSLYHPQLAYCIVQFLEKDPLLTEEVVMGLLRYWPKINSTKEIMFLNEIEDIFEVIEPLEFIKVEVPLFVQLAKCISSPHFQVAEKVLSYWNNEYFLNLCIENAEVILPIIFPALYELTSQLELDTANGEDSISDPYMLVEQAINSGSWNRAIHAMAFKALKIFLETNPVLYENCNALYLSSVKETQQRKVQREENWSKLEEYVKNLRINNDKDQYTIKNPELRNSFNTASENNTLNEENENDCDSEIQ

Legend:
[1] = target: T1, Sgo1-SZZ(TAP) (S. cerevisiae) (UniProt Q08490); assay: co-IP; cells arrested in nocodazole for 2 hr and treated with the cross-linker DSP before extract preparation; extracts incubated with IgG-coupled dynabeads for 1.5 hr at 4°C to precipitate SZZ(TAP)-tagged Sgo1; immunoblot
T1 sequence: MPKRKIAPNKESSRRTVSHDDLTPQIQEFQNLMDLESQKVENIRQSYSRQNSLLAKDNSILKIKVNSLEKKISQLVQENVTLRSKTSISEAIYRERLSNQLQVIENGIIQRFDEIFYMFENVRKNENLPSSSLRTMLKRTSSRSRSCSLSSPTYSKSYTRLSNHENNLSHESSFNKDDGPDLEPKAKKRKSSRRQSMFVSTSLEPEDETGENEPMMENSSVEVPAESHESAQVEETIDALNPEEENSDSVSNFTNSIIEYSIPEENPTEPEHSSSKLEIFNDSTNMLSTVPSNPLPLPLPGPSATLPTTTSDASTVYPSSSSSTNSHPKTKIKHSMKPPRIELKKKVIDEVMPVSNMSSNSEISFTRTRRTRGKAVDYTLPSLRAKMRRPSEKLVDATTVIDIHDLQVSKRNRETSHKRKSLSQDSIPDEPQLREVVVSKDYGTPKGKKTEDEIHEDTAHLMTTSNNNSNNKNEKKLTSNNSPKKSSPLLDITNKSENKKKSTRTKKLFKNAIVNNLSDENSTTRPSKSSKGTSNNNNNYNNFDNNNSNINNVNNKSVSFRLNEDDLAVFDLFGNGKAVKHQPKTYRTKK

[2] = target: T1, Sgo1-SZZ(TAP) (S. cerevisiae); assay: co-IP; nocodazole-arrested cells directly drop-frozen without DSP or treated with DSP; extracts with or without 25 U benzonase for 30 min; IgG-coupled beads; immunoblot
[3] = target: T1, Sgo1-SZZ(TAP) (S. cerevisiae); assay: co-IP; cells arrested in nocodazole for 2 hr and treated with the cross-linker DSP before extract preparation; extracts incubated with IgG-coupled dynabeads for 1.5 hr at 4°C to precipitate SZZ(TAP)-tagged Sgo1; immunoblot; remark: listed apart in the source

Molecule | binding [1] | binding [2] | binding [3]
Rts1-9Myc (from UniProt P38903 1-757) | binds | – | –
Ycs4-6HA (protein, UniProt Q06156 1-1176) MSGFSLSEYLTKFQTTDRESYPRLQDPSRELNVIIDQLAVSPEQIDASPDSLEALIDLCHDFPHLTPKLQTQLSYLISSSLSNLSKDIKANLSSNVNFTEIGGLIPQWKRHLEEYGYLIQVLLTFLQDELHKVSSQSTNLNRSAKNSKNDSANVELFKRDCNQMENLLESITKLLEINLSKIFQTTPEKDLFIGLFTRPLFVLLEIEPVTKVSSLKMFIQRILAMCVKNHGQSSSIQSSLMTNLTYFLHLSVFNAELLKLLNDEYNYPQLTEDILKEISTRVFNAKDTTGPKAISNFLIKLSELSPGIMLRQMNLVITLLNNSSITLRCSVVEACGNIVAELAQDPQTMEHYKQQIAVLIELLEERFQDSNPYVRTKAIQGCSKICDLSSKFNKSKAKFTSLAVRSLQDRSSLVRRNSVKLLSKLLLKHPFKAIHGSQLRLSEWEEYLKGSESQLNSTLKKVESQETLNDTIERSLIEEEVEQDEGQCRTELEGSFNKSAELSRIENEVENINATNTSVLMKLKLMIVYYKDAISFIKEIHKSIELISNLLFSKNRNEVLESMDFLVLADAFDIELSEFGIKKMLHLVWMKGTNDEGTSISVHLIECYKQLFLTAPDSCNMQEKAAHIAKNLINLSIGASIADLASLEQLLGMMYEQKLIDQHVINILWAIYNSASKASMQKEQNVNNRDSEKGFSKEQIHGSIIILGMLSLADNEIALKGLESLLNIGLGAVGLKDLTLCRYSCLALERMVPKRSTIITKAINQELEDVAVKKLYAIIINYTKDNEYYPMCEQALSALFTISSKPDILATDLIREKTMMTFGKPEEEDSILSLEQSSRVVSLSQLLFIVGQVAIKTLVYLEKCEAEFKKRKIEAETRNGKVKNQGADVTNTTQDNGGDKELEMIGGTNEDDFTDAIQFVKENELLFGEKSILGKFCPIVEEIVSNSSRFSDPMLQRTATLCLEKLMCLSSKYCEKSLPLLITVMEKSPDPTIRSNAVLGLGDMAVCFNNLVDENTDYLYRRLHDENLMVQRTCLMTVTFLILAGQVKVKGQLGEMAKCLDNPDQGISDMCRLFFTELASKDNAIYNGFIDIFSNLSSDDLLGKESFKKIIKFLLTFIDKERHQKQLNEKLVGRLRKCETQKQWDDIAFVLNNLPYKNEDVTALLEQGFKVVSAKE | – | binds | binds
Ipl1-6HA (enzyme, UniProt P38991 1-367) MQRNSLVNIKLNANSPSKKTTTRPNTSRINKPWRISHSPQQRNPNSKIPSPVREKLNRLPVNNKKFLDMESSKIPSPIRKATSSKMIHENKKLPKFKSLSLDDFELGKKLGKGKFGKVYCVRHRSTGYICALKVMEKEEIIKYNLQKQFRREVEIQTSLNHPNLTKSYGYFHDEKRVYLLMEYLVNGEMYKLLRLHGPFNDILASDYIYQIANALDYMHKKNIIHRDIKPENILIGFNNVIKLTDFGWSIINPPENRRKTVCGTIDYLSPEMVESREYDHTIDAWALGVLAFELLTGAPPFEEEMKDTTYKRIAALDIKMPSNISQDAQDLILKLLKYDPKDRMRLGDVKMHPWILRNKPFWENKRL | – | – | binds
Brn1-6HA (protein, UniProt P38170 1-754) MTTQLRYENNDDDERVEYNLFTNRSTMMANFEEWIKMATDNKINSRNSWNFALIDYFYDLDVLKDGENNINFQKASATLDGCIKIYSSRVDSVTTETGKLLSGLAQRKTNGASNGDDSNGGNGEGLGGDSDEANIEIDPLTGMPISNDPDVNNTRRRVYNRVLETTLVEFETIKMKELDQELIIDPLFKKALVDFDEGGAKSLLLNTLNIDNTARVIFDASIKDTQNVGQGKLQRKEEELIERDSLVDDENEPSQSLISTRNDSTVNDSVISAPSMEDEILSLGMDFIKFDQIAVCEISGSIEQLRNVVEDINQAKDFIENVNNRFDNFLTEEELQAAVPDNAEDDSDGFDMGMQQELCYPDENHDNTSHDEQDDDNVNSTTGSIFEKDLMAYFDENLNRNWRGREHWKVRNFKKANLVNKESDLLEETRTTIGDTTDKNTTDDKSMDTKKKHKQKKVLEIDFFKTDDSFEDKVFASKGRTKIDMPIKNRKNDTHYLLPDDFHFSTDRITRLFIKPGQKMSLFSHRKHTRGDVSSGLFEKSTVSANHSNNDIPTIADEHFWADNYERKEQEEKEKEQSKEVGDVVGGALDNPFEDDMDGVDFNQAFEGTDDNEEASVKLDLQDDEDHKFPIRENKVTYSRVSKKVDVRRLKKNVWRSINNLIQEHDSRKNREQSSNDSETHTEDESTKELKFSDIIQGISKMYSDDTLKDISTSFCFICLLHLANEHGLQITHTENYNDLIVNYEDLATTQAAS | – | – | binds
